Measurements: patent US11054425B2, “System and method for identification and characterization of transglutaminase species” (Roche Sequencing Solutions, Inc., priority 2014, dated 2021)
Some entries share one result that the patent states for a list of compounds.

Tested on: S. mobaraensis MTG
Assay: GLDH-coupled assay in solution (NADH oxidation)
Type: biochemical, Streptomyces mobaraensis
Settings: enzyme S. mobaraensis MTG
Description: For the GLDH coupled assay, to determine whether the KalbTG peptides selected in the array assay were also preferred substrates in a solution reaction and to quantify cross-reactivity of KalbTG and S. mobaraensis MTG with various substrates, a continuous glutamate dehydrogenase (GLDH)-coupled assay for S. mobaraensis MTG activity (see Oteng-Pabi, et al., 2013. Analytical biochemistry 441(2): 169-173) was applied. […]
Reactions were started by the addition of 5 μg ml^−1 of S. mobaraensis MTG or KalbTG and the oxidation of NADH was continuously recorded at 340 nm for 60 minutes using a Biotek Synergy H4 microplate reader, temperature controlled at 37° C., with short shaking intervals before each measurement. After a short lag phase where the GLDH was saturated by transglutaminase-mediated release of ammonia, linear rates of absorbance versus time corresponding to transglutaminase turnover were observed and subjected to Michaelis-Menten kinetic analysis. Rates of absorbance in millioptical density units per minute (mOD min^−1) were converted into molar rates of NADH turnover (pmol s^−1) using the formula of Equation 1 (previously determined by an NADH standard curve): Turnover rate=|Absorbance rate|*1.111 (Eq. 1)

Q: Which Km does the source give for “DYALQ (Z (carbobenzyloxy) cap) [preferred S. mobaraensis MTG glutamine-containing substrate, reference compound]” here?
A: 600 to 900 µM
